# Measured values reported in PubChem BioAssay AID540256 (National Center for Advancing Translational Sciences (NCATS), 2011).
# Screen size: about 300,000 compounds; about 3,700 (1.2%) were called active. Inconclusive results, whose numbers are uncertain, are shown with a selection of clear calls. The call rests on the fitted dose curve; tested in HEK293 cells. Potencies of inconclusive entries are doubtful fits and often do not repeat.
# Assay: qHTS for Inhibitors of binding or entry into cells for Lassa Virus; further: nearly all actives have a fitted effect of over 50% in size
# Details: Lassa virus pseudotype entry inhibition, cell reporter; activity change, negative = inhibition: at 37.9 µM (top of the series) unless noted
# On the % scale 0 is the no-effect control and ±100 the full control effect; potency means the concentration at half of the fitted maximal effect.
Structure (SMILES),"activity change, negative = inhibition",Potency
O=C(Nc1ccc(N2CCC(N3CCCCC3)CC2)c(C(=O)O)c1)c1ccccc1,inactive: -1.85% [at 46.1 µM],–
COc1ccccc1NC(=O)COc1ccc(Br)cc1CO,inactive: -15%,–
CN(c1ccccc1)S(=O)(=O)c1cc(C(=O)N2CCN(c3ncccn3)CC2)ccc1Cl,–,"inconclusive: 2.82 µM [inhibitor, full curve, poor fit]"
CCOC(=O)c1cc(C#N)c(N2CCN(C(=O)c3ccccc3)CC2)nc1C(F)(F)F,–,active: 11.2 µM
CCC(CC)NC(=O)COC(=O)c1cc(SC)ccc1Cl,inactive: 12.9%,–
COc1ccc(C(=O)c2ccc(OC)cc2OC)cc1,–,"inconclusive: 7.08 µM [inhibitor, full curve, poor fit]"
OCCNCCOCCOc1ccccc1-c1ccccc1,–,"inconclusive: 25.9 µM [inhibitor, partial curve, poor fit]"
CN1CCN(c2ccc(NC(=O)c3ccc4c(c3)OCO4)cc2)CC1,inactive: 10.3%,–
CCOC(=O)C1=C(c2ccccc2)NC(=S)NC1C (stereo not drawn),–,"inconclusive: 0.562 µM [inhibitor, partial curve, poor fit]"
Cc1ccc(NC(=O)CCc2nc3sc4c(c3c(=O)[nH]2)CCCC4)nc1,–,"inconclusive: 1.26 µM [inhibitor, single point]"
Cc1ccc2nc(-c3ccncc3)c(Nc3ccccc3C)n2c1,inactive: -9.38% [at 46.1 µM],–
Cc1cccc(OCCC(=O)OCC(=O)Nc2c(C)nn(-c3ccccc3)c2C)c1,–,"inconclusive: 35.5 µM [activator, single point]"
COc1ccc(NC(=O)C2CCN(c3cc(-c4ccccc4)nc4ncnn34)CC2)cc1OC,–,"inconclusive: 29.1 µM [inhibitor, single point]"
CCN1CCN(Cc2c(O)ccc3oc(C)c(C(=O)Nc4ccc(OC)c(Cl)c4)c23)CC1,–,"inconclusive: 17.8 µM [inhibitor, single point]"
CC1CN(CCc2ccccc2)c2nc3c(c(=O)[nH]c(=O)n3C)n2C1 (stereo not drawn),–,"inconclusive: 10 µM [inhibitor, partial curve]"
Cc1cc(C)cc(NC(=O)CN2C(=O)COc3ccc(S(=O)(=O)Nc4ccccc4)cc32)c1,inactive: -10.9% [at 46.1 µM],–
Cc1cn(C)c(CC(=O)NCc2ccc(F)cc2)c1C(=O)O,–,"inconclusive: 20 µM [activator, partial curve, poor fit]"
COc1ccc2c(c1)c1c(c(=O)n(-c3cccc(C)c3)c(=O)n1CC(=O)Nc1c(C)cc(C)cc1C)n2C,–,"inconclusive: 3.16 µM [inhibitor, single point]"
COC(=O)c1cccc(CSc2nnc(C)s2)c1,–,"inconclusive: 18.3 µM [activator, single point]"
CCOc1ccc(NC(=O)CN(C)C(=O)c2cc(S(=O)(=O)N(C)C)ccc2N2CCCC2)cc1OCC,–,"inconclusive: 35.5 µM [inhibitor, single point]"
COCCCNC(=O)/C=C/c1cccc(Cl)c1,inactive: 7.68%,–
CCOCCCn1c(=N)c(C(=O)NCc2ccco2)cc2c(=O)n3ccccc3nc21,inactive: -4.23% [at 46.1 µM],–

Structure (SMILES),"activity change, negative = inhibition",Potency
COc1ccc(-c2nn(-c3ccccc3)cc2C(=O)N2c3ccc(C)cc3C3CN(C)CCC32)cc1 (stereo not drawn),–,active: 11.2 µM
CSc1cc(-c2ccncc2)nc(-c2ccc(Cl)cc2)c1,inactive: 13.5%,–
Cc1cccn2c(=O)c3cc(C#N)c(=NC(=O)c4ccccc4)n(Cc4ccco4)c3nc12,–,"inconclusive: 35.5 µM [inhibitor, single point]"
N/C(=N\OC(=O)c1cccc2ccccc12)c1ccccn1,–,"inconclusive: 5.62 µM [inhibitor, partial curve, poor fit]"
CCOc1ccc(NC(=O)C(CC)NC(=O)c2ccccc2CO)cc1 (stereo not drawn),inactive: 10.7%,–
CCN1CCN(Cc2c(O)ccc3c(=O)c(Oc4ccccc4Cl)c(C(F)(F)F)oc23)CC1,inactive: 6.98% [at 46.1 µM],–
CC1(C)CC(=O)C(C=NCc2cccnc2)=C(O)C1,–,"inconclusive: 3.55 µM [activator, partial curve, poor fit]"
CCOC(=O)c1c(C)oc2nc(C)nc(NCc3ccc(C)cc3)c12,–,"inconclusive: 14.1 µM [activator, single point]"
Cc1ccc(C(=O)Nc2ccccc2C(=O)NC(Cc2c[nH]c3ccccc23)C(=O)O)cc1 (stereo not drawn),–,"inconclusive: 35.5 µM [activator, single point]"
CC(C)C(=O)Nc1ccc(NC(=O)c2cc3ccccc3o2)cc1,–,"inconclusive: 1.3 µM [activator, partial curve]"
O=C(NCCC1=CCCCC1)c1ccc2c(c1)N(Cc1ccc(F)cc1)C(=O)c1ccccc1S2(=O)=O,–,"inconclusive: 14.1 µM [inhibitor, single point]"
Cc1ccc(-c2csc(NC(=O)CN3CCOCC3)n2)cc1,–,"inconclusive: 31.6 µM [inhibitor, partial curve, poor fit]"
Cc1ccc(N=Nc2c(N)nn3c(C)cc(C)nc23)cc1,–,"inconclusive: 29.1 µM [activator, partial curve, poor fit]"
N#C/C(=C\c1ccc(N2CCOCC2)o1)C(=O)Nc1ccc(O)cc1,–,"inconclusive: 7.94 µM [inhibitor, partial curve, poor fit]"
COC(=O)c1ccc2c(=O)[nH]c(CSc3nc(C)cs3)nc2c1,–,"inconclusive: 35.5 µM [inhibitor, partial curve, poor fit]"
COc1ccc(S(=O)(=O)NC(N)=NCCc2ccccc2OC)cc1,–,"inconclusive: 0.562 µM [inhibitor, full curve, poor fit]"
CCNC(=S)Nc1cccc(NC(=O)c2ccccc2O)c1,–,"inconclusive: 0.316 µM [inhibitor, partial curve, poor fit]"
C=CCNC(=S)N/N=C/c1ccc(C(C)(C)C)cc1,–,"inconclusive: 7.94 µM [inhibitor, partial curve, poor fit]"
CCC(=O)c1ccc(OCC(=O)OCC(=O)c2c(N)n(C)c(=O)n(C)c2=O)cc1,inactive: -0.559%,–
COc1ccc(NC(=O)CN(C)C(=O)c2cccc(S(=O)(=O)Nc3ccccc3Cl)c2)cc1,inactive: -2.2%,–
Cc1ccc(NS(=O)(=O)c2ccc(C(=O)N3CCCCCC3)cc2)cc1,–,"inconclusive: 5.01 µM [inhibitor, partial curve, poor fit]"

# Three neighbouring compounds out of the list so far, quoted:
Structure (SMILES),"activity change, negative = inhibition",Potency
N/C(=N\OC(=O)c1cccc2ccccc12)c1ccccn1,–,"inconclusive: 5.62 µM [inhibitor, partial curve, poor fit]"
CCOc1ccc(NC(=O)C(CC)NC(=O)c2ccccc2CO)cc1 (stereo not drawn),inactive: 10.7%,–
CCN1CCN(Cc2c(O)ccc3c(=O)c(Oc4ccccc4Cl)c(C(F)(F)F)oc23)CC1,inactive: 6.98% [at 46.1 µM],–
